Counter-ions that a name gives are not always drawn. Some of the results follow. No stated cut-off is given here; in the data, active = 1.25 or more and inactive = the rest. Single values are uncertain, as repeats are few or missing.
system: Kcc2-LUC knock-in mouse primary cortical neurons (Kcc2 promoter reporter); assay: Kcc2 promoter-driven luciferase activity relative to vehicle control (fold of vehicle (ratio)); higher = stronger Kcc2 promoter activation (Kcc2 expression enhancer); details: 100 nM; 48 h

Compound | Kcc2 promoter-driven luciferase activity
O=C1/C(=C\c2ccc(Cl)c(Cl)c2)CN(C(=O)CCN2CCOCC2)C/C1=C\c1ccc(Cl)c(Cl)c1 | inactive: 1.17
CCCCCC[C@@H](C(C)O)n1cnc2c(N)ncnc21 (stereo in doubt) [(2S)-3-(6-Aminopurin-9-yl)nonan-2-ol hydrochloride] | inactive: 1.2
Cc1c2c(cc3c1[nH]c1ccccc13)C=NCC2 [5-Methyl-4,6-dihydro-3h-pyrido[4,3-b]carbazole] | inactive: 1.15
COc1ccc(C2=Nc3ccccc3SC(C)C2)cc1 (stereo not given) [4-(4-methoxyphenyl)-2-methyl-2,3-dihydro-1,5-benzothiazepine] | inactive: 0.54
C=C1CC[C@@H]2[C@](C)(CO)[C@H](O)CC[C@@]2(C)[C@@H]1C/C=C1/C(=O)OC[C@H]1O [Andrographolide] | inactive: 1.1
Cc1ccc(S(=O)(=O)ON=C2CC(c3ccccc3)N(C)C(c3ccccc3)C2)cc1 (stereo not given) | inactive: 0.93
C[n+]1ccc(Nc2ccc(NC(=O)c3ccc(Nc4cc[n+](C)c5ccc([N+](=O)[O-])cc45)cc3[N+](=O)[O-])cc2)cc1 [Quinolinium, dichloride] | active: 1.45
COc1cc(OC)c(OC)cc1/C=C/c1ccnc2ccccc12 [4-[(E)-2-(2,4,5-Trimethoxyphenyl)ethenyl]quinoline] | inactive: 0.94
O=C1c2ccccc2C(=O)C1C(c1ccc([N+](=O)[O-])cc1)C1C(=O)c2ccccc2C1=O | inactive: 1.04
C[C@]12C=CC(=O)C=C1[C@@H](F)C[C@H]1[C@@H]3CC[C@](O)(C(=O)CO)[C@@]3(C)C[C@H](O)[C@@]12F [6-alpha-Fluoro-isoflupredone] | inactive: 0.96
COc1ccc2c(NCCCCCCNc3c4ccccc4nc4cc(OC)ccc34)c3ccccc3nc2c1 [N,N'-bis(3-methoxyacridin-9-yl)hexane-1,6-diamin] | inactive: 1.02
CC12CC(Br)(Br)C(=O)C3C1CCCC32 | inactive: 0.89
Cc1cccc(NC(=O)/C=C/c2ccc([N+](=O)[O-])cc2)c1 [n-(3-methylphenyl)-3-(4-nitrophenyl)prop-2-enamide] | inactive: 0.22
Nc1ccccc1C(=O)NC(=O)Nc1ccc(Oc2ncc(Br)cn2)c(Cl)c1 | inactive: 0.96
COc1cc(/C=C2\S/C(=N/Nc3nc(-c4ccc(Br)cc4)cs3)NC2=O)cc(OC)c1OC | inactive: 0.938

2 records drawn at random from those above:
Compound | Kcc2 promoter-driven luciferase activity
COc1ccc2c(NCCCCCCNc3c4ccccc4nc4cc(OC)ccc34)c3ccccc3nc2c1 [N,N'-bis(3-methoxyacridin-9-yl)hexane-1,6-diamin] | inactive: 1.02
C=C1CC[C@@H]2[C@](C)(CO)[C@H](O)CC[C@@]2(C)[C@@H]1C/C=C1/C(=O)OC[C@H]1O [Andrographolide] | inactive: 1.1

Reference: the supplement of paper PMC8551327
